Consider four substances from article PMC8630767.

Sequences of proteins named here, by UniProt entry; tags and fusion partners are left off. A change or cut given only in a name is not applied to a line headed by its entry. A line that says so, or that is headed by a name, gives the form on record, which may keep a tag or linker.
xlMRAP2.L with N-terminal VF2 (part of Venus) and C-terminal 2×Flag (A0A1L8G9N8, form named): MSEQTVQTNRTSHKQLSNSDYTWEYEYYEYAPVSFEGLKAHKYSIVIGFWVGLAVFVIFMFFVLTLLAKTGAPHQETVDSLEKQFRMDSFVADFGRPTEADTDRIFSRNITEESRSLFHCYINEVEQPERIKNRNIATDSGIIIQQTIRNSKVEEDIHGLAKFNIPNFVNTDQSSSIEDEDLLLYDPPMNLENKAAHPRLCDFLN
xlMRAP2.S with N-terminal VF2 (part of Venus) and C-terminal 2×Flag (A0A1L8G336, form named): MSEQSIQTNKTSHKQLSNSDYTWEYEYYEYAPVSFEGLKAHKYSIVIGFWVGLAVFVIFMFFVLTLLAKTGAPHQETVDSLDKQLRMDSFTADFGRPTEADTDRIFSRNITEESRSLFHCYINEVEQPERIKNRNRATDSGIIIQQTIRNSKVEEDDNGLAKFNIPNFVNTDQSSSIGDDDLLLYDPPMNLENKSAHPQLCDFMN

No constants are given. Whether binding was seen depends on the method and setting. Binding seen in cells or lysates may run through a third protein. Binding can be weak; no strength is given.

Experiment [1] concerns the target 3×HA-xlMC3R.S (Xenopus laevis melanocortin-3 receptor, S subgenome copy) (Xenopus laevis). Description: co-IP; HEK293T cells co-transfected with 3×HA-xlMC3Rs and 2×Flag-xlMRAPs; lysate incubated with HA-tag rabbit mAb overnight at 4°C, protein A/G agarose beads; blot with anti-FLAG and anti-HA.
The target of experiment [2] is xlMC3R.S with VF1 (part of Venus) at the C-terminus (Xenopus laevis). As to the kind of experiment: split reporter; bimolecular fluorescence complementation of split Venus (VF1 on xlMC3Rs, VF2 on xlMRAPs) in transfected HEK293T cells, fixed 24 h after transfection, confocal microscopy.

Take “2×Flag-xlMRAP2.L (Xenopus laevis melanocortin receptor accessory protein 2, L subgenome copy) (from UniProt A0A1L8G9N8 1-205)”: the binding result in experiment [1] is “binds”.
For the substance “2×Flag-xlMRAP2.S (Xenopus laevis melanocortin receptor accessory protein 2, S subgenome copy) (from UniProt A0A1L8G336 1-205)”, in experiment [1], the binding result is reported as “binds”.
Consider “xlMRAP2.L with N-terminal VF2 (part of Venus) and C-terminal 2×Flag (from UniProt A0A1L8G9N8 1-205)”, for which, in experiment [2], the binding result was “binds”.
Same read-out and setting: next, “xlMRAP2.S with N-terminal VF2 (part of Venus) and C-terminal 2×Flag (from UniProt A0A1L8G336 1-205)”: “binds”.
